# Test results taken from the supplement of paper PMC12067093, “Discovery and optimisation of a covalent ligand for TRIM25 and its application to targeted protein ubiquitination” (Chemical Science, 2025).
# The chains behind the UniProt entries cited, without tags or fusion partners. Where a name states a change or a piece, a line headed by the entry shows the natural chain unless it says otherwise.
# UniProt P11142, whole entry, looked up: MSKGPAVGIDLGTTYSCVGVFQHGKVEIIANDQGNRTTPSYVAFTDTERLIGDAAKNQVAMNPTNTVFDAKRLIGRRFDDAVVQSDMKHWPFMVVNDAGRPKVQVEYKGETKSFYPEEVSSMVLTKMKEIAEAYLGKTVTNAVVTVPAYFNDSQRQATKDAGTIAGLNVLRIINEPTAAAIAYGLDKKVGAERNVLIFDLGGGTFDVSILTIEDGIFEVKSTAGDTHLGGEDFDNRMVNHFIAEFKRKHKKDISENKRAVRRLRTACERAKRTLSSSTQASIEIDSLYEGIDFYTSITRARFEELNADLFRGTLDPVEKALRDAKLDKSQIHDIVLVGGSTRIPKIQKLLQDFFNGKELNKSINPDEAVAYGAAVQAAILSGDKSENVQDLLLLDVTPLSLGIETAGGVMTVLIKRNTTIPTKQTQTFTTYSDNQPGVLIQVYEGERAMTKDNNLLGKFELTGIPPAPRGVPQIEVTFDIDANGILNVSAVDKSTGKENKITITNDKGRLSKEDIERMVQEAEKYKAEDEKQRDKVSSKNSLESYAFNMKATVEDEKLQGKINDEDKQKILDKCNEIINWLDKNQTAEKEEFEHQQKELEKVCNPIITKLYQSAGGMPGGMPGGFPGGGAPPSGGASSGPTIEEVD
# UniProt Q99714: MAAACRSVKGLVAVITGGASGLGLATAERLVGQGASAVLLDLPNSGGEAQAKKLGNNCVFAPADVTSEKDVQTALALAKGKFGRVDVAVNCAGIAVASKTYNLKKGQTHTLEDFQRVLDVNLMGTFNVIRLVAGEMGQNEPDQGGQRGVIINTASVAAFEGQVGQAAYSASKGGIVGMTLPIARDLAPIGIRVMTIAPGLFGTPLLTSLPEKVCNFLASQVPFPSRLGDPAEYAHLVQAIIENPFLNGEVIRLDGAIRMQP
# UniProt Q01581: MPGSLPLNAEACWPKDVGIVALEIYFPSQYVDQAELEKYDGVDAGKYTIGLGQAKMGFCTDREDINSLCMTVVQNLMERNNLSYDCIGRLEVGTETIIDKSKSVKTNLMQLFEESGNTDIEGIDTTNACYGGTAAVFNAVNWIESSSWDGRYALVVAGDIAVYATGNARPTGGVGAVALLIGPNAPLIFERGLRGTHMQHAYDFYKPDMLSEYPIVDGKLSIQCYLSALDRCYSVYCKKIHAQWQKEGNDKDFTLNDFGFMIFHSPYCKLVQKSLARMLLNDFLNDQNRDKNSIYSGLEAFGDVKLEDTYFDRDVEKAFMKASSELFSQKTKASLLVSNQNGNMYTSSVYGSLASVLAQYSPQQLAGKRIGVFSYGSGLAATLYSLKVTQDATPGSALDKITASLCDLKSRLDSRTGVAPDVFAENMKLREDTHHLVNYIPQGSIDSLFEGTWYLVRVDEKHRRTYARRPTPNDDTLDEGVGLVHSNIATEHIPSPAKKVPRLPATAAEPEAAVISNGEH
# UniProt Q53GQ0: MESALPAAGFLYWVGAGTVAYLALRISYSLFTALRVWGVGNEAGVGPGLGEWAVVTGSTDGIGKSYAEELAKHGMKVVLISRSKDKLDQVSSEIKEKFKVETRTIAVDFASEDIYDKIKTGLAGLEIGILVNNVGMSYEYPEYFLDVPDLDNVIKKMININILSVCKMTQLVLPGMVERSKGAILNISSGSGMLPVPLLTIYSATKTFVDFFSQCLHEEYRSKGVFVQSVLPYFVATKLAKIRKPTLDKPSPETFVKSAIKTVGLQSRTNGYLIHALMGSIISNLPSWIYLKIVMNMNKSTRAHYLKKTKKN
# UniProt Q00839, whole entry, looked up: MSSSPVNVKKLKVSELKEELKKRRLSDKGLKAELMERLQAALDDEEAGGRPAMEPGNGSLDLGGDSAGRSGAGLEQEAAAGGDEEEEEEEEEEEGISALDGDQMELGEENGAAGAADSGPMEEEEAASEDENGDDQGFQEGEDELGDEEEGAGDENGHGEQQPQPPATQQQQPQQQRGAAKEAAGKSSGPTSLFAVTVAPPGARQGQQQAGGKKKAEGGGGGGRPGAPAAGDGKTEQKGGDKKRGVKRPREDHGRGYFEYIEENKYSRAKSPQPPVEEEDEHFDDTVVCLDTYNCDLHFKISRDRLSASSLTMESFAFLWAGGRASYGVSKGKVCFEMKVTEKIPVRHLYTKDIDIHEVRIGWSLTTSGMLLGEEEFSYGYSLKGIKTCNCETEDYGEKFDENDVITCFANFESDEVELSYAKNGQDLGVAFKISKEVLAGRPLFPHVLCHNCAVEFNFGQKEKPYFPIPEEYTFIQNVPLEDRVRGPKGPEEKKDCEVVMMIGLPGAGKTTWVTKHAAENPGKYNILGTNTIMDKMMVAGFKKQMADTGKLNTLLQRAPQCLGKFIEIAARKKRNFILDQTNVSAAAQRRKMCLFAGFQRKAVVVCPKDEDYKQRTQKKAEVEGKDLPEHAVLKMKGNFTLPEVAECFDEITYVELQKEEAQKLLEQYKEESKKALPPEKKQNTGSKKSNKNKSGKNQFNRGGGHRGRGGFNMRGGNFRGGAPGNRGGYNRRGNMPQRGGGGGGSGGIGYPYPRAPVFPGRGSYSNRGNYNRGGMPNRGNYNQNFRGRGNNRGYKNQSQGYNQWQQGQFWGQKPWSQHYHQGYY
# UniProt P52597: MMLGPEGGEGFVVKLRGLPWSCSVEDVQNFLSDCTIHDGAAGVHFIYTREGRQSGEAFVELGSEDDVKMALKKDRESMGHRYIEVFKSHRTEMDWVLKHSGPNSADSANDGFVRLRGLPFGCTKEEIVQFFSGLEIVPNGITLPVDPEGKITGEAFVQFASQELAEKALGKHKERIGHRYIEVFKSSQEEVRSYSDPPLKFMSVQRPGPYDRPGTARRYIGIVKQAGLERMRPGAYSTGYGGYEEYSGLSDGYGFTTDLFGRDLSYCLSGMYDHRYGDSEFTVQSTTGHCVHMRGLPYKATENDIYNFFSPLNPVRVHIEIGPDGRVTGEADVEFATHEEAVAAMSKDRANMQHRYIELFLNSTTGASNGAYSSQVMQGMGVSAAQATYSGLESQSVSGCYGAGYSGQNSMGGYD
# UniProt P51659: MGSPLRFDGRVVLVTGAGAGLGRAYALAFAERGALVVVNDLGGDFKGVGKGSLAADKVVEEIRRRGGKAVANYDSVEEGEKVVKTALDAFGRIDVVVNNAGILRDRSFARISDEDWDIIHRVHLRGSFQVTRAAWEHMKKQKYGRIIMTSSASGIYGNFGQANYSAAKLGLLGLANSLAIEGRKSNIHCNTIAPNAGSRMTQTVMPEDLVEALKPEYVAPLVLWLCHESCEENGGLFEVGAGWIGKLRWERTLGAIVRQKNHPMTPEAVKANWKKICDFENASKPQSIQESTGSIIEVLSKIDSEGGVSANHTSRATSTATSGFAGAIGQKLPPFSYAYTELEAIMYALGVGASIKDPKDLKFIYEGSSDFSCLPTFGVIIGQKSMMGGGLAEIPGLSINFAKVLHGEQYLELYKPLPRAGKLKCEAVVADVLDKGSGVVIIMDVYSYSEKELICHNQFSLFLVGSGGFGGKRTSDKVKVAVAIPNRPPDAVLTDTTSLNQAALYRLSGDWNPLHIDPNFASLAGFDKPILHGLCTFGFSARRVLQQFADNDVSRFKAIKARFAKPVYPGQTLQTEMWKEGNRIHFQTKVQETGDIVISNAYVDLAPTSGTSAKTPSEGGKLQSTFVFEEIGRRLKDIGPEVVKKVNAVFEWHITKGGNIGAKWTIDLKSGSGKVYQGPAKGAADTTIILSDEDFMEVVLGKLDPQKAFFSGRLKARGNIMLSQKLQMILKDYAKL
# UniProt P34932: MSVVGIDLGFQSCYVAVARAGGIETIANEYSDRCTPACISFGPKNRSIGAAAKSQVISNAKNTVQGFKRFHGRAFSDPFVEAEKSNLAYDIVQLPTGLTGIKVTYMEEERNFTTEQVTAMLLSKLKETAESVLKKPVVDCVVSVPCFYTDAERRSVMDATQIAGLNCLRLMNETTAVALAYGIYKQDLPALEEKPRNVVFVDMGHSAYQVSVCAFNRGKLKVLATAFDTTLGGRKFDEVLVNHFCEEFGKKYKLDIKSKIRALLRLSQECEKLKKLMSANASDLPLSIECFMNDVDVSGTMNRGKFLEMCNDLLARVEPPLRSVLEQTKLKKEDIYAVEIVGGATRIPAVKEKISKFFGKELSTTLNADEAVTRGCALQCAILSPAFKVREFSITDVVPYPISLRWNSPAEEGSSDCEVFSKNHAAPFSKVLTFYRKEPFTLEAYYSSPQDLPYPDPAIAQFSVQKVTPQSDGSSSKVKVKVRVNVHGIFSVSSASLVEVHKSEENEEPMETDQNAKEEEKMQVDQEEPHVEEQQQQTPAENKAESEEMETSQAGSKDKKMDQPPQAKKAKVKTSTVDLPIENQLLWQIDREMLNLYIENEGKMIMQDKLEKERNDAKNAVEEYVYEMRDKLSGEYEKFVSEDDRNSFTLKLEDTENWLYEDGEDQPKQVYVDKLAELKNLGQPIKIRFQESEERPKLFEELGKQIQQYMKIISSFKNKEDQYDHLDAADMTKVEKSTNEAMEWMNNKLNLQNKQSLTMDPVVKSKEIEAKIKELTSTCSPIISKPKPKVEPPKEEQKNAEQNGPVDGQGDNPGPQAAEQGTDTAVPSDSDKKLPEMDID
# UniProt Q92598: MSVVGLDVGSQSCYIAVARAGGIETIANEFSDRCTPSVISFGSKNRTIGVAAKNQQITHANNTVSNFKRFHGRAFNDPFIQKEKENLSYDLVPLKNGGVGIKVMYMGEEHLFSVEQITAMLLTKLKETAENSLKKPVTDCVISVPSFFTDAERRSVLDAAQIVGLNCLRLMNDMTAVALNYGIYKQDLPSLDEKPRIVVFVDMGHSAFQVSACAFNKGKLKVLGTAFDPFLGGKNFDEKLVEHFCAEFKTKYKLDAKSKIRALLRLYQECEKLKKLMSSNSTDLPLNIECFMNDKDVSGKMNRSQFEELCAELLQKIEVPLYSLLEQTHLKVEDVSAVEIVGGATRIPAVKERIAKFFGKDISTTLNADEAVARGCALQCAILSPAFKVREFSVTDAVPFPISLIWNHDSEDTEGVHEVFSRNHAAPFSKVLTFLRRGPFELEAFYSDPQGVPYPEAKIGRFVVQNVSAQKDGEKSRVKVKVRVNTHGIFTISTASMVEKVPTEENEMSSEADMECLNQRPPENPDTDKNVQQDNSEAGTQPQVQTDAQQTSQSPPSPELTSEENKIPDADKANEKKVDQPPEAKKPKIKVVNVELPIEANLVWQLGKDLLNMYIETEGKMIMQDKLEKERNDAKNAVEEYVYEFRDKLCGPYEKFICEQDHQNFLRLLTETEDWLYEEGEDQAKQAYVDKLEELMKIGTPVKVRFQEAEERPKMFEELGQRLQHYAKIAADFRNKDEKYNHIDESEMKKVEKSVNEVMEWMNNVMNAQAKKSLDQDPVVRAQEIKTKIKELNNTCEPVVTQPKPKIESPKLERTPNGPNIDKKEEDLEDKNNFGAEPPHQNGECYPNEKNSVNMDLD
# UniProt P04035: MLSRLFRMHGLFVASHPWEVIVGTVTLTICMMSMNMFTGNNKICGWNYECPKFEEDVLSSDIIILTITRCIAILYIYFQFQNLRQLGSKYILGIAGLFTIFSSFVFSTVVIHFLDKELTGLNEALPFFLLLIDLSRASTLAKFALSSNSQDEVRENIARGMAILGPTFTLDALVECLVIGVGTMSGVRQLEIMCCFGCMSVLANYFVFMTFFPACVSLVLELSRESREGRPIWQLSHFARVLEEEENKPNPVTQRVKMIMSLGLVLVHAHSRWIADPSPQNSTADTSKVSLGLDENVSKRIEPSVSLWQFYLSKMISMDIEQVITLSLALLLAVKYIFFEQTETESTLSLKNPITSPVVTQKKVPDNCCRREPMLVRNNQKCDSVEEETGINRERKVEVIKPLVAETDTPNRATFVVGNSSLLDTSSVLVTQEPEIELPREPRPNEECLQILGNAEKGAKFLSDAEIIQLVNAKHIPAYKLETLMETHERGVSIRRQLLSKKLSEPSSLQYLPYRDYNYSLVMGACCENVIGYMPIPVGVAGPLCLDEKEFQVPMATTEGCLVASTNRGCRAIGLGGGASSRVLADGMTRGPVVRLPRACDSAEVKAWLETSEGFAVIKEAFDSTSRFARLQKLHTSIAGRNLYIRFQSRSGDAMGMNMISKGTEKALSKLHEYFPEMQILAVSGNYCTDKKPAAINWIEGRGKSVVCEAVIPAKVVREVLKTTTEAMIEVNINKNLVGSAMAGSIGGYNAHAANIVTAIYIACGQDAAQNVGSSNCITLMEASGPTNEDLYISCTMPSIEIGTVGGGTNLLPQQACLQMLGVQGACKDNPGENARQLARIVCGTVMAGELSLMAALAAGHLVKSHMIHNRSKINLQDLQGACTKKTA
# UniProt P00492: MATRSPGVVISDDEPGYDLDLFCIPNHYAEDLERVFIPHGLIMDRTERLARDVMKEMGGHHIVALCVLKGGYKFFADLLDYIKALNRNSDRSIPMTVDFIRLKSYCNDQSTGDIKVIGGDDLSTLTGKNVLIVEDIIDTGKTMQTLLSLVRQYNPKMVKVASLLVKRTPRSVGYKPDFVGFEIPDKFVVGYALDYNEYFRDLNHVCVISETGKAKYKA
# The other results are listed elsewhere or left out.
# Compound: CC1Cc2ccccc2N1C(=O)C1CCCN(C1)C(=O)CCl (mixture of isomers) [TRIM25 ligand 11 (diastereomer mixture)]
# Assay: probe-labelled cysteine peptide fold change vs DMSO (competition) (log2 fold change); higher = less target engagement (more negative = stronger competition)
# Settings: THP-1, incubation time: 4 h
# 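Also: competitive chemoproteomic profiling in live THP-1 cells with an iodoacetamide desthiobiotin (IA-DTB) probe, comparing probe-labelled peptide intensities in compound-treated cells against DMSO-treated controls.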
Target,probe-labelled cysteine peptide fold change (10 µM),probe-labelled cysteine peptide fold change (50 µM)
HSPA8_P11142_17_GPAVGIDLGTTYSCVGVFQHGK (UniProt P11142),-0.00147,0.0553
HSD17B10_Q99714_91_FGRVDVAVNCAGIAVASK (UniProt Q99714),-0.206,-0.122
HMGCS1_Q01581_86_NNLSYDCIGR (UniProt Q01581),-0.153,-0.103
HNMT_P50135_31_FLNHSTEHQCMQEFMDKK (UniProt P50135),-0.0809,-0.28
HSP90B1_P14625_645_LTESPCALVASQYGWSGNMER (UniProt P14625),-0.101,-0.109
HSD17B12_Q53GQ0_166_KMININILSVCK (UniProt Q53GQ0),-0.306,-0.272
HPS4_Q9NQG7_63_CVSDISDSPPTLVR (UniProt Q9NQG7),-0.0309,0.173
HNRNPU_Q00839_389+391_TCNCETEDYGEK (UniProt Q00839),0.302,0.197
HNRNPD_Q14103_226_GFCFITFKEEEPVK (UniProt Q14103),-0.0444,-0.0734
HOMEZ_Q8IX15_110_CGISWSSEEIEETR (UniProt Q8IX15),0.0831,0.0249
HSPA8_P11142_17_SKGPAVGIDLGTTYSCVGVFQHGK (UniProt P11142),-0.203,-0.105
HSPBP1_Q9NZL4_310_ECREPELGLEELLR (UniProt Q9NZL4),-0.0116,-0.0253
HNRNPF_P52597_267_DLSYCLSGMYDHR (UniProt P52597),0.0214,-0.017
HSD17B4_P51659_455_ELICHNQFSLFLVGSGGFGGKR (UniProt P51659),-0.0969,-0.0518
HSPA4_P34932_270_LSQECEK (UniProt P34932),0.083,0.0404
HNRNPR_O43390_214_GYAFITFCGK (UniProt O43390),-0.176,-0.0712
HSP90AA1_P07900_597+598_LVTSPCCIVTSTYGWTANMER (UniProt P07900),0.0632,0.0503
HSD17B12_Q53GQ0_166_MININILSVCK (UniProt Q53GQ0),-0.0213,-0.0637
HSPA14_Q0VDF9_440_QHTLQAPGSISSVCLELYESDGK (UniProt Q0VDF9),0.0676,-0.0323
HNRNPA1_P09651_175_YHTVNGHNCEVR (UniProt P09651),0.0508,-0.0151
HSPA4_P34932_146_KPVVDCVVSVPCFYTDAERR (UniProt P34932),0.116,0.0285

Target,probe-labelled cysteine peptide fold change (10 µM),probe-labelled cysteine peptide fold change (50 µM)
HNRNPU_Q00839_648_GNFTLPEVAECFDEITYVELQK (UniProt Q00839),-0.000604,-0.189
HSPA9_P38646_608_DQLPADECNK (UniProt P38646),0.0667,0.182
HSPH1_Q92598_310_SQFEELCAELLQK (UniProt Q92598),-0.173,-0.14
HSPA4_P34932_245_KFDEVLVNHFCEEFGK (UniProt P34932),0.0733,-0.000172
HSPA4L_O95757_140_KPVADCVISIPSFFTDAER (UniProt O95757),0.0605,0.121
HNRNPU_Q00839_335_VCFEMK (UniProt Q00839),0.159,0.302
HPS6_Q86YV9_164_AEGPSGSPAAAFSHCVCVR (UniProt Q86YV9),0.392,0.0398
HMGCS1_Q01581_224_LSIQCYLSALDR (UniProt Q01581),0.0241,0.157
HSP90AB1_P08238_366_VFIMDSCDELIPEYLNFIR (UniProt P08238),-0.0155,-0.053
HNRNPA0_Q13151_7_MENSQLCK (UniProt Q13151),-0.164,0.025
HMGCR_P04035_382_CDSVEEETGINR (UniProt P04035),0.0226,0.0105
HMGCL_P35914_141_NINCSIEESFQR (UniProt P35914),0.0699,0.161
HNRNPLL_Q8WVV9_474_LCNDHEVLTFIK (UniProt Q8WVV9),0.0754,-0.118
HMOX2_P30519_265_CPFYAAEQDK (UniProt P30519),0.185,0.0949
HMGCS1_Q01581_406_ITASLCDLK (UniProt Q01581),0.00806,-0.0782
HSPA4_P34932_34+38_CTPACISFGPK (UniProt P34932),-0.17,-0.134
HSD17B4_P51659_425_CEAVVADVLDK (UniProt P51659),0.214,0.154
HSPA4L_O95757_540_CHAEHTPEEEIDHTGAK (UniProt O95757),-0.102,-0.185
HSPA4_P34932_245_KFDEVLVNHFCEEFGKK (UniProt P34932),-0.437,-0.192
HSPA1A_P0DMV8_17_AAAIGIDLGTTYSCVGVFQHGK (UniProt P0DMV8),-0.106,0.167
HSD17B10_Q99714_214_VCNFLASQVPFPSR (UniProt Q99714),-0.0273,0.168

Target,probe-labelled cysteine peptide fold change (10 µM),probe-labelled cysteine peptide fold change (50 µM)
HNRNPH1_P31943_22_GLPWSCSADEVQR (UniProt P31943),0.0841,-0.0383
HSPA14_Q0VDF9_492_DGSLHVTCTDQETGK (UniProt Q0VDF9),0.101,0.0738
HNRNPU_Q00839_594_MCLFAGFQR (UniProt Q00839),-0.121,-0.0218
HNRNPA0_Q13151_49_CFGFVTYSNVEEADAAMAASPHAVDGNTVELKR (UniProt Q13151),-0.116,-0.183
HSPA14_Q0VDF9_304_FELLCSPLFNK (UniProt Q0VDF9),0.0661,0.00935
HSD17B7_P56937_158_ELEPLLCHSDNPSQLIWTSSR (UniProt P56937),0.127,0.183
HTATSF1_O43719_186_GDGLCCYLK (UniProt O43719),0.204,-0.0126
HSPA4_P34932_146_KPVVDCVVSVPCFYTDAER (UniProt P34932),0.0249,-0.0163
HSP90AA1_P07900_374_VFIMDNCEELIPEYLNFIR (UniProt P07900),0.135,0.211
HSPH1_Q92598_290_LMSSNSTDLPLNIECFMNDK (UniProt Q92598),0.00551,-0.101
HNRNPUL2_Q1KMD3_518_DLLVQQASQCLSK (UniProt Q1KMD3),0.128,-0.00731
HSPA4_P34932_140+146_KPVVDCVVSVPCFYTDAERR (UniProt P34932),-0.0726,-0.147
HNRNPUL2_Q1KMD3_452_TIEECEVILMVGLPGSGK (UniProt Q1KMD3),-0.0599,0.0666
HNRNPAB_Q99729_224_KFHTVSGSKCEIK (UniProt Q99729),-0.654,-0.0882
HPCAL1_P37235_38_DCPTGHLTVDEFK (UniProt P37235),0.137,0.0406
HMGCL_P35914_307_LLEAGNFICQALNR (UniProt P35914),0.011,0.16
HMGCR_P04035_708_SVVCEAVIPAK (UniProt P04035),-0.0108,0.383
HSPA5_P11021_41_KEDVGTVVGIDLGTTYSCVGVFK (UniProt P11021),0.169,0.0722
HSPA4L_O95757_140_KPVADCVISIPSFFTDAERR (UniProt O95757),-0.0435,-0.0286
HMGXB3_Q12766_800_TCGLKPSTLK (UniProt Q12766),-0.128,-0.181
HSF1_Q00613_103_VVHIEQGGLVKPERDDTEFQHPCFLR (UniProt Q00613),0.0759,0.0283

Target,probe-labelled cysteine peptide fold change (10 µM),probe-labelled cysteine peptide fold change (50 µM)
HNRNPUL1_Q9BUJ2_487_WDVLIQQATQCLNR (UniProt Q9BUJ2),-0.207,0.00768
HSP90AA1_P07900_529_HGLEVIYMIEPIDEYCVQQLK (UniProt P07900),0.00229,-0.0105
HP1BP3_Q5SSJ5_359_TCSTTALK (UniProt Q5SSJ5),-0.00507,-0.0802
HOMEZ_Q8IX15_273_DKPPPIALIASSCK (UniProt Q8IX15),-0.095,0.115
HNRNPU_Q00839_607_AVVVCPK (UniProt Q00839),0.17,0.108
HNRNPDL_O14979_277_GFCFITYTDEEPVK (UniProt O14979),0.00264,-0.0345
HSD17B12_Q53GQ0_215_TFVDFFSQCLHEEYR (UniProt Q53GQ0),0.0883,0.0348
HSD17B11_Q8NBQ5_217_TTCLCPNFVNTGFIK (UniProt Q8NBQ5),0.106,0.0234
HSPA14_Q0VDF9_394_ENLLVEDSLMIECSAR (UniProt Q0VDF9),-0.368,-0.17
HNRNPF_P52597_290_YGDSEFTVQSTTGHCVHMR (UniProt P52597),0.0985,0.052
HSPA4L_O95757_213_NVVFIDMGHSAYQVLVCAFNK (UniProt O95757),0.0444,0.134
HSD17B4_P51659_189_SNIHCNTIAPNAGSR (UniProt P51659),0.0271,-0.0918
HMGCS1_Q01581_268_DFTLNDFGFMIFHSPYCK (UniProt Q01581),0.0999,-0.0576
HPRT1_P00492_206_DLNHVCVISETGK (UniProt P00492),0.0402,0.0203
HSPD1_P10809_237_CEFQDAYVLLSEKK (UniProt P10809),-0.374,-0.338
HSPBP1_Q9NZL4_201_LLDRDACDTVR (UniProt Q9NZL4),-0.108,-0.14
HNRNPUL2_Q1KMD3_602_CDYMDEVTYGELEK (UniProt Q1KMD3),0.074,-0.194
HSD17B10_Q99714_91_VDVAVNCAGIAVASK (UniProt Q99714),0.0329,-0.0714
HSPH1_Q92598_658_FICEQDHQNFLR (UniProt Q92598),0.0618,0.177
HSPG2_P98160_3043_CLIHDGAAPISLEWK (UniProt P98160),0.0387,0.152
